The whole screen tested about 340,000 compounds, of which about 6,200 (1.8%) were called active. Inconclusive means that the source gave no clear call. Such entries were picked first, then a sample of the others. Calls follow the shape of the dose curve; as a rule, active = well fitted activation curve with a large enough effect; inconclusive = small, poorly fitted or top-dose-only effect; inactive = no such curve, though single readings can be large or run the other way. A potency beside an inconclusive call is a rough fit, not a confirmed value.
test: A quantitative high throughput screen for small molecules that induce DNA re-replication in SW480 colon adenocarcinoma cells.; also: nearly all actives have a fitted effect of over 55% in size; as to re-replication activation: % of control where 0% means no effect; settings: Hoechst DNA content imaging, 48 h; re-replication activation: at 46.1 µM (top of the series) unless noted
Method in brief: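 Treated cells incubate 48 hr (37 C, 5% CO2), are stained 40 min with Hoechst, and nuclear fluorescence is enumerated; a rise in nuclei with high DNA signal marks re-replication.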
Potency is read from the fitted curve at half-maximal effect.

Row | SMILES | Potency | re-replication activation
1 | CCOc1cnc(-c2c(-c3c(Cl)cccc3Cl)noc2C)o1 | inconclusive: 4.11 µM [activator, full curve, poor fit] | –
2 | Cc1cc(-c2c(C)[nH]n(-c3ccc(Cl)cc3)c2=O)n[nH]1 | inconclusive: 20.6 µM [activator, single point] | –
3 | Cc1cccc(C(=O)OCC(=O)c2ccc(CC(=O)N3CCOCC3)s2)c1C | – | inactive: 5.42%
4 | CCOc1cc(-c2cc(-c3ccccc3)nc(N)c2C#N)ccc1O | inconclusive: 23.1 µM [activator, partial curve, poor fit] | –
5 | O=C(CCc1ccc(S(=O)(=O)N2CCOCC2)cc1)Nc1nc(COc2ccccc2)cs1 | – | inactive: 0.652%
6 | CCOc1ccc(NCc2nnc(SCC(=O)Nc3cc(C)on3)n2-c2ccc(OC)cc2)cc1 | inconclusive: 18.4 µM [activator, partial curve, poor fit] | –
7 | O=C(CCNC(=O)c1ccc(Cl)cc1)Nc1ccncc1 | – | inactive: 2.49%
8 | Cc1ccc(S(=O)(=O)NC(=O)c2ccc(-c3ccc(-c4ccccc4)cc3)o2)c(C)c1 | – | inactive: -4.22%
9 | CCN1CCN(c2ccc(S(=O)(=O)N3CCCCC3)cc2NC(=O)c2ccccc2)CC1 | – | inactive: -0.873%
10 | O=C(Cc1ccccc1)N/N=C/c1ccccn1 | – | inactive: -2.57%
11 | Cc1ccc(NC(=O)CN2CCCC2c2cccn2C)c(Br)c1 (stereo not given) | – | inactive: -0.0269%
12 | O=C1CC(NC(=O)C(F)(F)F)c2cc3c(cc21)OCO3 (stereo not given) | – | inactive: -4.72%
13 | N#Cc1cc2c([nH]c1=S)CCCC2 | inconclusive: 3.26 µM [activator, full curve, poor fit] | –
14 | COc1ccc(/C=C2\CCC(C3CCCC3)C2=O)c(OC)c1 (stereo not given) | – | inactive: -6.6%
15 | CCC1C(=NO)C(CC)C(c2ccccc2)NC1c1ccccc1 (stereo not given) | inconclusive: 20.6 µM [activator, single point] | –
16 | C=CCOc1c(Cl)cc(CNc2ccc(N(C)C)cc2)cc1OC | inconclusive: 29.1 µM [activator, single point] | –
17 | COc1cc(C(=O)Oc2ccccc2/C=N/NC(=O)c2ccc(C)c(Cl)c2)cc(OC)c1OC | inconclusive: 0.731 µM [activator, full curve, poor fit] | –
18 | O=C(NC1CCCC1)C1CCC(CNS(=O)(=O)c2ccc(F)cc2)CC1 (stereo not given) | inconclusive: 9.2 µM [activator, partial curve, poor fit] | –
19 | O=S(=O)(/N=C(\Sc1ccccc1)c1ccccc1)c1ccc(Cl)cc1 | – | inactive: 9.35%
20 | CCn1nnc(NC(=O)c2sc3ccccc3c2Cl)n1 | – | inactive: -0.913%
21 | CN1CCN(C(=O)CSc2nc(-c3cccs3)cc(-c3cccs3)c2C#N)CC1 | inconclusive: 18.4 µM [activator, single point] | –
22 | COc1ccc(-n2c(SCCNCCO)nc3sc4c(c3c2=O)CCCC4)cc1 | inconclusive: 29.1 µM [activator, single point] | –
23 | C=CCN(CC=C)C(=O)c1c(OC)cccc1OC | – | inactive: 1.29%
24 | O=C(OCC(=O)N1CCc2ccccc2C1)c1ccc(OC(F)F)cc1 | – | inactive: -1.87%

Row | SMILES | Potency | re-replication activation
25 | CCCCn1c(N)c(N(CCOC)C(=O)CN(C)CC(=O)Nc2ccc(Cl)c(Cl)c2)c(=O)[nH]c1=O | – | inactive: -26.8%
26 | O=C(NCC(Cl)c1ccc2ccccc2c1)c1c(F)cccc1F (stereo not given) | inconclusive: 18.4 µM [activator, single point] | –
27 | Cc1ccc(-c2nnc(NCc3ccccc3)c3ccccc23)cc1 | – | inactive: -5.09%
28 | O=C1S/C(=C/c2ccc(N3CCOCC3)o2)C(=O)N1Cc1c(F)cccc1Cl | inconclusive: 29.1 µM [activator, single point] | –
29 | Cc1cc(C)nc(N/N=C/c2ccccc2OCc2ccc(Br)cc2)n1 | inconclusive: 32.6 µM [activator, single point] | –
30 | COc1ccc(NC(=O)Cn2c(C)cc(=O)c3ccccc32)cc1 | inconclusive: 0.517 µM [activator, full curve, poor fit] | –
31 | CCCS(=O)(=O)C(=C(Nc1ccccc1)Nc1ccccc1)S(=O)(=O)CCC | inconclusive: 23.1 µM [activator, single point] | –
32 | Oc1ccc(Cl)cc1Nc1nc(NCC2CCCO2)c2ccccc2n1 (stereo not given) | inconclusive: 4.61 µM [activator, full curve, poor fit] | –
33 | CCCCCCCCC[n+]1cccc2c3ccccc3ccc21 | inconclusive: 18.4 µM [activator, single point] | –
34 | O=C(NC1CC2CCC(C1)N2Cc1ccccc1)c1ccccc1Cl (stereo not given) | inconclusive: 16.4 µM [activator, single point] | –
35 | Cc1cc(=O)n2nc(N3CCC(C(=O)NCc4ccccc4)CC3)sc2n1 | inconclusive: 25.9 µM [activator, single point] | –
36 | O=C(NC(=S)Nc1ccc(F)cc1)C1CCCCC1 | inconclusive: 29.1 µM [activator, partial curve, poor fit] | –
37 | N=c1c(C(=O)NCc2ccc(F)cc2)cc2c(=O)n3ccccc3nc2n1CCCN1CCOCC1 | inconclusive: 0.103 µM [activator, full curve, poor fit] | –
38 | Cc1cc(C(=O)N/N=C\c2cc(C(C)(C)C)ccc2O)n[nH]1 | inconclusive: 6.51 µM [activator, single point] | –
39 | c1coc(C2=Nc3cccc4cccc(c34)N2)c1 | – | inactive: -10.6%
40 | COc1ccc(-c2nn(-c3ccccc3)cc2/C=C/C(=O)O)cc1[N+](=O)[O-] | inconclusive: 25.9 µM [activator, single point] | –
41 | Cc1c(NC2(C#N)CCCCC2)c(=O)n(-c2ccccc2)n1C | – | inactive: -3.64%
42 | C/C(=N\N=C(/C)c1cccc(N)c1)c1cccc(N)c1 | inconclusive: 8.2 µM [activator, partial curve, poor fit] | –
43 | COc1ccc(NC(=O)COC(=O)CNC(=O)C2CCCCC2)cc1OC | – | inactive: -0.613%
44 | C[C@H](CO)N1C[C@H](C)[C@@H](CN(C)CC2CCCCC2)Oc2ccc(NC(=O)CCN3CCOCC3)cc2C1=O | – | inactive: -2.09%
45 | S=C(NNC(=S)NC1CC2C=CC1C2)NC1CC2C=CC1C2 (stereo not given) | inconclusive: 29.1 µM [activator, single point] | –
46 | CCCOc1ccc(C(=O)N2CCN(c3ccc(NC(=O)CC)cc3Cl)CC2)cc1 | – | inactive: -2.75%
47 | Cc1ccc(Cn2c(=N)n(CC(O)COc3ccccc3)c3ccccc32)cc1 (stereo not given) | inconclusive: 29.1 µM [activator, single point] | –
48 | CCN(CCNCC(O)COCc1ccc(Cl)cc1)c1cccc(C)c1 (stereo not given) | inconclusive: 20.6 µM [activator, single point] | –

Two records picked at random from those above, as already listed:
Row | SMILES | Potency | re-replication activation
30 | COc1ccc(NC(=O)Cn2c(C)cc(=O)c3ccccc32)cc1 | inconclusive: 0.517 µM [activator, full curve, poor fit] | –
43 | COc1ccc(NC(=O)COC(=O)CNC(=O)C2CCCCC2)cc1OC | – | inactive: -0.613%

The list goes on.

Row | SMILES | Potency | re-replication activation
49 | Cc1cccc(N(C(=O)c2snc(C(N)=O)c2N)C(C(=O)NC2CCCC2)c2ccco2)c1 (stereo not given) | inconclusive: 18.4 µM [activator, single point] | –
50 | O=C(C[C@H]1C/C=C\C[C@@H](NC(=O)OCC2c3ccccc3-c3ccccc32)C(=O)O[C@@H](c2ccccc2)CNC1=O)N[C@H](CO)Cc1ccccc1 | inconclusive: 16.4 µM [activator, single point] | –
51 | COc1ccc(NC(=O)c2nc[nH]c2C(=O)N2CCN(c3ccccc3)CC2)cc1 | inconclusive: 6.51 µM [activator, single point] | –
52 | COc1cccc(-c2cc(C(=O)Nc3ccncc3)c3ccccc3n2)c1 | – | inactive: -5.63%
53 | O=C(c1ccc(Cl)cc1)c1c[nH]c(C(=O)NNc2cccc(Cl)n2)c1 | inconclusive: 18.4 µM [activator, single point] | –
54 | CCCNC(=S)N1CCN(c2nc(-c3ccc(C)cc3)cs2)CC1 | – | inactive: 0.747%
55 | COCCNC(=O)CCc1c(C)nc2c(c(C)nn2-c2ccc(C)cc2)c1C | inconclusive: 18.4 µM [activator, single point] | –
56 | Cc1cc(NN)nc2ccc(Cl)cc12 | inconclusive: 29.1 µM [activator, single point] | –
57 | CC(C)(C)C1CCc2sc(C(=O)NNC(=O)CCl)cc2C1 (stereo not given) | inconclusive: 18.4 µM [activator, single point] | –
58 | CN(CC(=O)Nc1ccccc1Cl)C(=O)COC(=O)c1ccc([N+](=O)[O-])s1 | inconclusive: 16.4 µM [activator, single point] | –
59 | CCN(CC)C(=O)[C@H]1C[C@H](CC(=O)NCc2cccc(C(F)(F)F)c2)C(=O)N2CCc3c([nH]c4ccc(Cl)cc34)[C@]12C | inconclusive: 0.0046 µM [activator, full curve, poor fit] | –
60 | O=C(Nc1ccccc1-c1nc2ccccc2[nH]1)c1sc2ccccc2c1Cl | – | inactive: -3.8%
61 | Nc1c(C(=O)C2CC2)sc2nc3c(cc12)CCC3 | inconclusive: 29.1 µM [activator, partial curve, poor fit] | –
62 | CC(C)C(=O)NNc1ccccc1 | – | inactive: 2.19%
63 | COc1ccc(S(=O)(=O)N2CCN(C(C)C(=O)Nc3ccc(C(C)C)cc3)CC2)cc1 (stereo not given) | inconclusive: 14.6 µM [activator, partial curve, poor fit] | –
64 | COc1cc(/C=C/C(=O)OCc2cn3cc(Cl)ccc3n2)ccc1O | inconclusive: 23.1 µM [activator, single point] | –
65 | CCCOc1ccc(C(=O)Nc2cccnc2)cc1 | – | inactive: -7.63%
66 | CC1CCCC(NC(=S)NC(=O)c2ccccc2Br)C1C (stereo not given) | inconclusive: 5.17 µM [activator, single point] | –
67 | CCN(CCCNC(=O)CC1Oc2ccc(C)cc2NC1=O)Cc1ccccc1 (stereo not given) | inconclusive: 16.4 µM [activator, single point] | –
68 | Oc1ccccc1C=NN=C1c2ccccc2-c2ccccc21 | inconclusive: 23.1 µM [activator, single point] | –
69 | COc1cc(C(=O)NCCc2ccc(F)cc2)ccc1OCC(=O)N1CCOCC1 | – | inactive: -90.7%
70 | Cc1ncoc1C(=O)N1CCCC(CCC(=O)NCc2ccccc2F)C1 (stereo not given) | inconclusive: 1.3 µM [activator, full curve, poor fit] | –
